Laboratory results from the supplement of paper PMC5949888.
Most values lie at the floor of the assay. Slopes are relative: functional sequences can read slightly below zero.

Test system: Saccharomyces cerevisiae PS128 hsf1 delta, HSF1(1-493) fusion
Experiment: growth estimate (transactivation domain function in HSF1 fusion, heat-shock survival) (a.u. (slope of normalised read count over time)); higher = stronger growth at 37°C, i.e. more transactivation activity
Settings: library: random library

Row | Substance | growth estimate
1 | RVMRVRRLSFGRRAMSVRQS | < -0.25
2 | VKWVHVDSLGDS | < -0.25
3 | RGEHGQKYPAKSGVMNRYDS | -0.246
4 | DRRAGRVSVLSNDGGLLPAS | < -0.25
5 | DRGAVQGKRTPARMDFPIEP | < -0.25
6 | VKLLRSRVT | < -0.25
7 | RSMFRRAHFRV | < -0.25
8 | TRMREAAGHFPTDSLIVVTP | < -0.25
9 | DLDLMSRREGQILARATVSA | < -0.25
10 | RPEFLPRTGAPVTSE | < -0.25
11 | VFYLSVPCIHSRLSGSCDRV | < -0.25
12 | TERQVYCG | < -0.25
13 | SRAALYLVEEAGVTTILFAS | < -0.25
14 | RSG | < -0.25
15 | GFGMSQ | < -0.25
16 | FDLACSGPKDSRT | -0.245
17 | QCRGWLYGHAPLAAQRDPYA | < -0.25
18 | RRM | < -0.25
19 | RDSGAIGYHLEYSARKEIRA | < -0.25
20 | MYHGVGSLASLPGVDGGSMT | < -0.25
21 | QRSNRLGHLRLPNTPKGRTP | < -0.25
22 | YGVEA | < -0.25
23 | PWSDARHPSAAGE | < -0.25

Quoted from above (three entries):
Row | Substance | growth estimate
14 | RSG | < -0.25
15 | GFGMSQ | < -0.25
16 | FDLACSGPKDSRT | -0.245

Later entries

Row | Substance | growth estimate
24 | KAVWTHISADLISTLRAPFT | < -0.25
25 | GMWVQKFSELRKTLVSGNRS | < -0.25
26 | CLKTALMKRFRANGRTLKPY | < -0.25
27 | AMRRYKVRGPTELLLNVPPG | < -0.25
28 | VLVEFRVEGAIVRQ | < -0.25
29 | TTANNKIVVRYYAMLRVAGS | < -0.25
30 | LRIQVLSED | < -0.25
31 | NSQEVRHCHKATAFLASQSI | < -0.25
32 | MLYTLSGCSLRGRRRCDRIN | < -0.25
33 | SPKEPGCRFVVSLLGFL | < -0.25
34 | FLSIEDLGGEQRP | < -0.25
35 | SAGYQ | < -0.25
36 | ILAGP | < -0.25
37 | IEGNETCVAGYGAEDRSWLP | < -0.25
38 | ATKRRGHVELRR | < -0.25
39 | FFGTHAVINF | < -0.25
40 | MTGMVVRTVYISCSGHHRYS | < -0.25
41 | RQGRMSNVFVGVVALFRDSA | < -0.25
42 | NLRGRLSGYRPENLDRVAGR | < -0.25
43 | HRVTRGPWEMSEIARALSKL | < -0.25
44 | RDCLTVYPAIYDEFLDLQVH | < -0.25
45 | KYRLSGVEVIRTASAHCPLR | -0.207
46 | RPMLEQLVPGVNEISGNCPP | < -0.25

Row | Substance | growth estimate
47 | CRQNALDL | < -0.25
48 | STAGIVAQLLRS | < -0.25
49 | GWPGQEIKGKGTSRGQYTSF | < -0.25
50 | VANDIDIQYN | < -0.25
51 | IWIVGQTNGAHFRADGAVYG | < -0.25
52 | ERSMGRPRENRQYENINRQH | -0.0501
53 | QLKQQCMLMAHRVVWRRALR | < -0.25
54 | KSSR | < -0.25
55 | VDREFEYPVRLSGGQLTGAH | < -0.25
56 | LAWSPWD | -0.111
57 | NGQGFLEGPHAEDGPVGYVF | < -0.25
58 | CYTI | < -0.25
59 | TCTWEYPR | < -0.25
60 | DYASGWEHTDVCATRCG | < -0.25
61 | VKTSDKVLLPRAKLTCYTNR | < -0.25
62 | PSRPQGCFRTERSRRR | < -0.25
63 | QFGSTTFAT | < -0.25
64 | AIGRHIL | < -0.25
65 | LVKCPCQYSPVCSHYRSLTR | < -0.25
66 | ERPVLEKVGGKFWSD | < -0.25
67 | EPWLSHPTIPCTWRKDWSI | 2.38
68 | LKPFLNNSSQVRAGGLWQLP | < -0.25
69 | RRLG | < -0.25

Row | Substance | growth estimate
70 | DTGRVLHRLGSCGASMNGEH | < -0.25
71 | NQQCLCLSCISWGPRAAPNQ | < -0.25
72 | RNKRWAGTRAMV | < -0.25
73 | STGIGCEYASLIVVVQLSWK | < -0.25
74 | NPISKAIVW | < -0.25
75 | EQIGRSGM | -0.0054
76 | DNERICLRLVV | < -0.25
77 | SGFVAVCDL | < -0.25
78 | PPSAQQRHWTF | < -0.25
79 | IGPERDYVTGNPFAVLLHCH | < -0.25
80 | IGSRVSPLCSSA | < -0.25
81 | PNW | < -0.25
82 | IVGMGPSPLECVRLRHMYGR | < -0.25
83 | WQPAAAPLRAQGSKRSWVMA | < -0.25
84 | GFNGIFTPFETK | < -0.25
85 | TTKPHGSAKKRCGRVRDYLI | < -0.25
86 | GWVH | < -0.25
87 | SIKQGTWNAPGR | < -0.25
88 | RRSGCAWTSRFGWVVYLYPF | < -0.25
89 | TASSGIYPILLRSPLPAAVG | < -0.25
90 | LFLAP | < -0.25
91 | KLAEAHNK | < -0.25
92 | ARQYATVGHLYMTTILIHVA | < -0.25

Row | Substance | growth estimate
93 | AQLCSYRVQEQDVPDYQSCE | < -0.25
94 | ASMTGLGLLWGIRPAAYPGL | < -0.25
95 | LSAQVKCRKRGLLYGSQRYQ | -0.231
96 | KLNMLCNRVIKLNPRS | < -0.25
97 | SGTCPLWLNPADPIGGTGAM | -0.174
98 | RKFSSCVKCPYFLACTQTFC | < -0.25
99 | RFNFIICAATDHSELHLRKR | < -0.25
100 | SRPYAFYRY | < -0.25
101 | LTTSVVG | < -0.25
102 | LVTRCPLMVRDPNREWWL | < -0.25
103 | LGGTVLYGSVRRMVIPARRI | < -0.25
104 | HVEAGGDAATGLYVSAGAWL | < -0.25
105 | AVWYRYSGNSLREHLVNSEV | < -0.25
106 | TSAGFGPWSDLWRRQRVRFE | < -0.25
107 | FSEGFL | < -0.25
108 | PISIF | < -0.25
109 | SMTGNSDRMVAVRPPNNGDG | < -0.25
110 | IKIMSIGGQYRFSRSGLPAV | < -0.25
111 | TSEGFHAFVHCRNARTENAD | < -0.25
112 | ITDVKFDGIRSLRHEKYEGT | < -0.25
113 | LVRAGCECPPCTLWRFTVAY | < -0.25
114 | GGVGTCLLRKH | < -0.25
115 | ALGNVNLIRSRRQAILHSCQ | -0.227

Row | Substance | growth estimate
116 | YAHISGEFSYRWNASCAW | < -0.25
117 | RQALWSVEVTC | < -0.25
118 | PVLGWNLARGSRKGPVGRRV | < -0.25
119 | AQESGRKDLLVWKVDGLKQP | < -0.25
120 | VLISK | < -0.25
121 | LGCIV | < -0.25
122 | LMVA | < -0.25
123 | DYVNLVKGTTHLLRWQLRKS | < -0.25
124 | QVSAWYRLVVEMRVHSDSPR | < -0.25
125 | TEGE | < -0.25
126 | EGLIGAED | < -0.25
127 | EFEVIRWVEGTGVL | < -0.25
128 | SGVRAQSLTRLYGLGGVTRR | < -0.25
129 | FYLGKRGHLVGTERYIPFRA | < -0.25
130 | GPICLICTKNPWYALGTGKR | -0.246
131 | AERGVLR | < -0.25
132 | PPLTSREVGFWFQLGW | < -0.25
133 | DLTLFE | < -0.25
134 | YQRGVRFVIRRGPQPRALVH | < -0.25
135 | RVVCQESPT | < -0.25
136 | VSRRMPGLMARRAVSSALQP | < -0.25
137 | IPIVCNWVSQDSYLSIRPVK | < -0.25
138 | SMVYLMRKCVDTIGTKHGSQ | < -0.25

5 entries from above, as tab-separated lines:
Row	Substance	growth estimate
132	PPLTSREVGFWFQLGW	< -0.25
133	DLTLFE	< -0.25
134	YQRGVRFVIRRGPQPRALVH	< -0.25
135	RVVCQESPT	< -0.25
136	VSRRMPGLMARRAVSSALQP	< -0.25

Additional records:

Row | Substance | growth estimate
139 | IERIMLQAGYDRNHERTLTP | < -0.25
140 | FLTPHCALLMSRC | -0.246
141 | RDNIG | < -0.25
142 | RARILREGGPTKESPGTPEF | < -0.25
143 | HRFGSTDNSLVGMLGVTGSI | < -0.25
144 | GGPFCGLLPPSQRDYESPIF | < -0.25
145 | LGVRLPVLRTYFERFDKTGA | < -0.25
146 | GVGRTYI | < -0.25
147 | QPTQWALLDLSQ | < -0.25
148 | FNLHRADVYWSHLDSGHW | < -0.25
149 | SISGRFIGGLGNRRLTWYRN | < -0.25
150 | GSYQKVVNCMAL | < -0.25
151 | GHRAGAHPRSEIGVRRRVYC | < -0.25
152 | VARGFALTRRIYVT | < -0.25
153 | EPMTCG | < -0.25
154 | LTSASQEHATSIVLPKDRG | < -0.25
155 | RSQESESRF | < -0.25
156 | LRGKILKYHVKICSKCQVPY | < -0.25

Fetched one by one from above, 3 records:
Row | Substance | growth estimate
153 | EPMTCG | < -0.25
150 | GSYQKVVNCMAL | < -0.25
154 | LTSASQEHATSIVLPKDRG | < -0.25
